Data reported in the supplement of paper PMC7666118.
The other results are listed elsewhere or left out.

Sequences of proteins named here, by UniProt entry; tags and fusion partners are left off. A change or cut given only in a name is not applied to a line headed by its entry.
UniProt P46013: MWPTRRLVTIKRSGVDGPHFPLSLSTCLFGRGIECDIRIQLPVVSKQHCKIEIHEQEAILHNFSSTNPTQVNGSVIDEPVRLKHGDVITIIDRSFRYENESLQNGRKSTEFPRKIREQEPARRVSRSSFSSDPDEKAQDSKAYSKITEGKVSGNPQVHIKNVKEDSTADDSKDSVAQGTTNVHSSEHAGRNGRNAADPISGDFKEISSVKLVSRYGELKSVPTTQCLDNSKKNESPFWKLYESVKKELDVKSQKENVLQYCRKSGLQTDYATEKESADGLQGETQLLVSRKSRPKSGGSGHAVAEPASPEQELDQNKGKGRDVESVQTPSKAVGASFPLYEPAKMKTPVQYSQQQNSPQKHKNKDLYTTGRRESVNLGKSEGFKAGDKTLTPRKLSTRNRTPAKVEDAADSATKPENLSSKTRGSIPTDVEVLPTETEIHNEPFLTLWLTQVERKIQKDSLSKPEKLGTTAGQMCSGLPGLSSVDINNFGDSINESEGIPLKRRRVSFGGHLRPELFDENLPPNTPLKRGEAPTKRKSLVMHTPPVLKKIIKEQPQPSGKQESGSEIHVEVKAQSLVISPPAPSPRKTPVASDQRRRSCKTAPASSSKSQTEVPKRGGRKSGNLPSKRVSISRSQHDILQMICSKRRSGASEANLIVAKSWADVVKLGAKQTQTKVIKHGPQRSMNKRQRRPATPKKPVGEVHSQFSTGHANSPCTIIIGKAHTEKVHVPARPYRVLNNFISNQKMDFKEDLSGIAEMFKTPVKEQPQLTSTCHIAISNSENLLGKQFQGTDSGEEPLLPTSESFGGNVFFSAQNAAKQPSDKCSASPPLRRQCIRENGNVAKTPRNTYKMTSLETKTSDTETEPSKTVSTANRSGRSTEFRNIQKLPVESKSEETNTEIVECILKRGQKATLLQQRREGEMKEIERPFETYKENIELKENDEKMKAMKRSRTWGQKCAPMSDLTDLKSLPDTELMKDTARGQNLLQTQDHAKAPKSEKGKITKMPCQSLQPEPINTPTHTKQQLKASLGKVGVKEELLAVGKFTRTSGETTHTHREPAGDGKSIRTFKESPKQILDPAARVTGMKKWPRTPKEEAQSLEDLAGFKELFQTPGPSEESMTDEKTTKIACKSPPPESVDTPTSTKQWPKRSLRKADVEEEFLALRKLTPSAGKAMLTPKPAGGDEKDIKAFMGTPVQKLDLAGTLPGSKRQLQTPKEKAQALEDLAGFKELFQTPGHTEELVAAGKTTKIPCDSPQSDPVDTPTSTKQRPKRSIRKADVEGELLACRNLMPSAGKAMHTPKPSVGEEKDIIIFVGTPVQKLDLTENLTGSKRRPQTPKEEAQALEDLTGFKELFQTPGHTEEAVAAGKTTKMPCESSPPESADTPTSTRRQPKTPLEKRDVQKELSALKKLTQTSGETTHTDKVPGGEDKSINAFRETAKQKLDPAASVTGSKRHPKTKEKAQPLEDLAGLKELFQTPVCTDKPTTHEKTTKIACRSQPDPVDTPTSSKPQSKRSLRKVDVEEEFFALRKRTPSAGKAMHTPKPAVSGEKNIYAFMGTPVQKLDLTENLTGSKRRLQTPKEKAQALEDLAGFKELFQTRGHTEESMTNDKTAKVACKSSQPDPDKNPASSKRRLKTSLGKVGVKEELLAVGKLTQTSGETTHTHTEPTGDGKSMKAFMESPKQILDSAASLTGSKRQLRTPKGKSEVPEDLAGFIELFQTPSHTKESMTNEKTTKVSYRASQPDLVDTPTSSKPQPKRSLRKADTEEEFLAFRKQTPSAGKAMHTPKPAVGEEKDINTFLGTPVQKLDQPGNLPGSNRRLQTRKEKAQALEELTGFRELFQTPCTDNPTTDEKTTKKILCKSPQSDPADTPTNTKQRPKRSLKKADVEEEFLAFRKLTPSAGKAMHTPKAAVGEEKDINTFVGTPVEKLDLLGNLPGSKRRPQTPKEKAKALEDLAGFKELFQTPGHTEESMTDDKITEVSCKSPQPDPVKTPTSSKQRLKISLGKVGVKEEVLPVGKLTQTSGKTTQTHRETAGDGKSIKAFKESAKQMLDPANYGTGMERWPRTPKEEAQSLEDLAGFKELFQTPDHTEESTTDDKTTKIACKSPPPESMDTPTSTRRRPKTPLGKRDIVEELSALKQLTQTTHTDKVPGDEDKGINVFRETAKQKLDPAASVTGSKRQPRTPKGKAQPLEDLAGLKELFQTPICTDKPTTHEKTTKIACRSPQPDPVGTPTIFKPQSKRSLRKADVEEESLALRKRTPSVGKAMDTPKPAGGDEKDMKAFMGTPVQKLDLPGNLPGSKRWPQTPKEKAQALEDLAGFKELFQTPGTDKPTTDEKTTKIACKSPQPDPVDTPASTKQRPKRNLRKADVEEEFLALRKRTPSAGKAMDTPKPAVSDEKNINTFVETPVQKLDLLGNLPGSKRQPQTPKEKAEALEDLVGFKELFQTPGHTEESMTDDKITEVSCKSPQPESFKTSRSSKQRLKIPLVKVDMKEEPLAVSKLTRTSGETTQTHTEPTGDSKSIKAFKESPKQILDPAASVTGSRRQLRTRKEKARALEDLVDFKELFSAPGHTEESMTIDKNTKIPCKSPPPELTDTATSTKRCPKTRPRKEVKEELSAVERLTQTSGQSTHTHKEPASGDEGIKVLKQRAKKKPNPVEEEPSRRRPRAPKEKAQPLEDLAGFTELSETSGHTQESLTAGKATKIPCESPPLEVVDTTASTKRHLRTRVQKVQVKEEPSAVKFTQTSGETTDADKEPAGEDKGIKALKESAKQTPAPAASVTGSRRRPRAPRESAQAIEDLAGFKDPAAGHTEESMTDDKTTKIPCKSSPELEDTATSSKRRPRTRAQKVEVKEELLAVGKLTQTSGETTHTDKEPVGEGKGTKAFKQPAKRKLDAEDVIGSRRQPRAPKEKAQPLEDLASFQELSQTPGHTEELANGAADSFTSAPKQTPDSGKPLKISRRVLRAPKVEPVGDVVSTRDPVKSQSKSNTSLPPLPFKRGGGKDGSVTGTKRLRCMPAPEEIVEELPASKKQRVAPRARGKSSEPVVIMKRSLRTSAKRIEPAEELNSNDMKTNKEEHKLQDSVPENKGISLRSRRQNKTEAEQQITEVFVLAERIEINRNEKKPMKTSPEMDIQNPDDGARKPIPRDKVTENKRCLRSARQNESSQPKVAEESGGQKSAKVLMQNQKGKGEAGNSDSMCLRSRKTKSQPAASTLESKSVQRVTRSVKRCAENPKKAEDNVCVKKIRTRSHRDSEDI
UniProt Q9Y4U1: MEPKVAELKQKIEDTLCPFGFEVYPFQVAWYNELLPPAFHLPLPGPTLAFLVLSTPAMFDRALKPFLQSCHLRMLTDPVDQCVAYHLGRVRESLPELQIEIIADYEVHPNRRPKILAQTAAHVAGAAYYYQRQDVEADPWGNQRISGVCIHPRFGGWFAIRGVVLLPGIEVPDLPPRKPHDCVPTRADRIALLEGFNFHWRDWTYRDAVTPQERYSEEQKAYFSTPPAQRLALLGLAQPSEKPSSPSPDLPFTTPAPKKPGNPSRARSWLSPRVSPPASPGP
UniProt Q9H3L0: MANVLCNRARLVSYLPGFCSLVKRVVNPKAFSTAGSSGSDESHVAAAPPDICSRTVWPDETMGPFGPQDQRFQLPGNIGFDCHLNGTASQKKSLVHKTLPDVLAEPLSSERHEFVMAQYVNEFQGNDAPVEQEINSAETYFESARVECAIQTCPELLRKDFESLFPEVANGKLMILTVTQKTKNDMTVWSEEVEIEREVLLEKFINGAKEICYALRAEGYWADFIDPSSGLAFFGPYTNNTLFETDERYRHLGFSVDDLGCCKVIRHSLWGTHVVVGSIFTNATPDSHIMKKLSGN
UniProt P46821: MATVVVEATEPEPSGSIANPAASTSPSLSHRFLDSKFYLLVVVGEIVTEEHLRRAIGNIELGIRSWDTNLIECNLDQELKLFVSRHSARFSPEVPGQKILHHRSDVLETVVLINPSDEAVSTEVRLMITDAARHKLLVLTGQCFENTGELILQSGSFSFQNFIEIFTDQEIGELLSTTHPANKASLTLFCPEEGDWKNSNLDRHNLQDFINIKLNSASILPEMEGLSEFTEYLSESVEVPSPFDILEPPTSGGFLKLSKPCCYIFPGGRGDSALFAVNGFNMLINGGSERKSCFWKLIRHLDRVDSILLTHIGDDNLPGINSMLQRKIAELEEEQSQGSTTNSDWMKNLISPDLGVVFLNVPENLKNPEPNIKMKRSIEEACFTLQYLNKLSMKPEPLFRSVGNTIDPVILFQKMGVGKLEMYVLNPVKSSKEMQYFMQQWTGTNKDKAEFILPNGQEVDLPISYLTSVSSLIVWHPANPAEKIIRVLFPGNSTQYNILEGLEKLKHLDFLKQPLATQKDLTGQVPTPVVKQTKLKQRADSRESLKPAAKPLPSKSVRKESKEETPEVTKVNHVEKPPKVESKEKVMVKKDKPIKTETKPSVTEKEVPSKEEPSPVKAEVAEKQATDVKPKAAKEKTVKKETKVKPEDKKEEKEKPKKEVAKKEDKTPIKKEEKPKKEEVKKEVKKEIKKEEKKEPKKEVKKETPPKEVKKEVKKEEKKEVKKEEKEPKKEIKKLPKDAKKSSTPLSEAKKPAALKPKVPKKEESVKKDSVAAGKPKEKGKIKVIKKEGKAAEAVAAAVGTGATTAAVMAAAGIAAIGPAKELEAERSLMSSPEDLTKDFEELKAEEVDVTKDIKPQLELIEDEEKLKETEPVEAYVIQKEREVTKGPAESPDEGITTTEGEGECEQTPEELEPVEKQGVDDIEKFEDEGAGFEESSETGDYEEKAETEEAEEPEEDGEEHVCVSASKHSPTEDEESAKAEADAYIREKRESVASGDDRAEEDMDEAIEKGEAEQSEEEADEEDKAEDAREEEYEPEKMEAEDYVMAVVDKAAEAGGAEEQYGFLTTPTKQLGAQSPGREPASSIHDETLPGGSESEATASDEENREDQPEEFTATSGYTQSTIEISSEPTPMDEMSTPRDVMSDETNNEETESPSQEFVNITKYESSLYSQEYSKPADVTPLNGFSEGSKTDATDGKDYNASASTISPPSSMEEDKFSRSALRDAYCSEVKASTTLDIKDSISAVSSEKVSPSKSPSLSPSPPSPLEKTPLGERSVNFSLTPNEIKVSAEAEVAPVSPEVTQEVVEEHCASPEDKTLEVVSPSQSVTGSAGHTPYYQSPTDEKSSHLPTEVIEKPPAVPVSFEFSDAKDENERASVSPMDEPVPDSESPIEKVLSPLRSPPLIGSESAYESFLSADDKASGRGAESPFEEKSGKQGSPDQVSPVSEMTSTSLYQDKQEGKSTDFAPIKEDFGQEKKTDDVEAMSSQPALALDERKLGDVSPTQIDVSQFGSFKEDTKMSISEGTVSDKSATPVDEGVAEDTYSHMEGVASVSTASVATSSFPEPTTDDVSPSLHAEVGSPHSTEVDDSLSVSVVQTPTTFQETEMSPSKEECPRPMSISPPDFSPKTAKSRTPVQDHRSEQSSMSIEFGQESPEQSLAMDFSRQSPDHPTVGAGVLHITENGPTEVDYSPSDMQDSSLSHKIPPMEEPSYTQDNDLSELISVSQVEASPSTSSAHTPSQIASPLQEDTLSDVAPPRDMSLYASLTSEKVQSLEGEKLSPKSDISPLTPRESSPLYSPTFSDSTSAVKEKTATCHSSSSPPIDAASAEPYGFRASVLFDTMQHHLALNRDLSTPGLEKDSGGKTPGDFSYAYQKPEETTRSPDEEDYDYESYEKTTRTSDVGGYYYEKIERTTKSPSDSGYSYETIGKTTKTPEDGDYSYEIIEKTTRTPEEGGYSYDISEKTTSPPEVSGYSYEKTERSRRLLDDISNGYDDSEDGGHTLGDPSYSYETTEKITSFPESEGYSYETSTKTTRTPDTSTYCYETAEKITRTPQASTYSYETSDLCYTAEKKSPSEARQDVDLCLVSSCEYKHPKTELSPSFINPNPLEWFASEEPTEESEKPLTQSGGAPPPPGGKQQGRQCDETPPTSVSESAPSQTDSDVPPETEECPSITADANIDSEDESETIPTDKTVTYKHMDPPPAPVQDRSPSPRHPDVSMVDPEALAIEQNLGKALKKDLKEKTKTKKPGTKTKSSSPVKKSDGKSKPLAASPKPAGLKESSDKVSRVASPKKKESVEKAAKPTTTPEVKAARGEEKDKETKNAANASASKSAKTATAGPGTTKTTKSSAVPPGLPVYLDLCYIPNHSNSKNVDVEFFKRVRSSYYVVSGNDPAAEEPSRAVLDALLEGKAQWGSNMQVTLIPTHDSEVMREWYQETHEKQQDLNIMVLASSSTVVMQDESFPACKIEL
UniProt Q9BWT6: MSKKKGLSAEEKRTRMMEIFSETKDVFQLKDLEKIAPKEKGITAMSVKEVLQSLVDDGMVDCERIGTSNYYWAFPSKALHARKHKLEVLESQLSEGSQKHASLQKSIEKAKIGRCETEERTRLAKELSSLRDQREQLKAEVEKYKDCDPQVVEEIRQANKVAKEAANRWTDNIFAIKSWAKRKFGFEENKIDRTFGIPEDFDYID

What follows are targets tested with COc1ccc(Cn2ccc3ccc(C(=O)NO)cc32)cc1 (assay: dose-dependent thermal stabilisation call (2D-TPP, DLPTP, 10% FDR) (binary (1 = stabilised)); higher = stabilised by the compound). Conditions: system: HL-60 intact cells; concentration range 0.04-10 µM.
MORC3 (UniProt Q14149) was tested, and the “dose-dependent thermal stabilisation call” value was inactive: 0. MARCKS (UniProt P29966) was tested, and the “dose-dependent thermal stabilisation call” value was inactive: 0. For MRPL49 (UniProt Q13405), the “dose-dependent thermal stabilisation call” value was inactive: 0. With MRPS24 (UniProt Q96EL2) the “dose-dependent thermal stabilisation call” value was inactive: 0. With MAPK3 (UniProt P27361) the “dose-dependent thermal stabilisation call” value was inactive: 0. For MCTS1 (UniProt Q9ULC4), the “dose-dependent thermal stabilisation call” value was inactive: 0. With MIPEP (UniProt Q99797) the “dose-dependent thermal stabilisation call” value was inactive: 0. For MKI67 (UniProt P46013), the “dose-dependent thermal stabilisation call” value was inactive: 0. With MMACHC (UniProt Q9Y4U1) the “dose-dependent thermal stabilisation call” value was inactive: 0. For MANEA (UniProt Q5SRI9), the “dose-dependent thermal stabilisation call” value was inactive: 0. For MAP3K4 (UniProt Q9Y6R4), the “dose-dependent thermal stabilisation call” value was inactive: 0. For MMADHC (UniProt Q9H3L0), the “dose-dependent thermal stabilisation call” value was inactive: 0. For MMGT1 (UniProt Q8N4V1), the “dose-dependent thermal stabilisation call” value was inactive: 0. With MRPL38 (UniProt Q96DV4) the “dose-dependent thermal stabilisation call” value was inactive: 0. In the case of MAP1B (UniProt P46821), the “dose-dependent thermal stabilisation call” value is reported as inactive: 0. For MED23 (UniProt Q9ULK4), the “dose-dependent thermal stabilisation call” value was inactive: 0. In the case of MRE11A (UniProt P49959), the “dose-dependent thermal stabilisation call” value is reported as inactive: 0. For MRPL3 (UniProt P09001), the “dose-dependent thermal stabilisation call” value was inactive: 0. For MCAT (UniProt Q8IVS2), the “dose-dependent thermal stabilisation call” value was inactive: 0. For MIA3 (UniProt Q5JRA6), the “dose-dependent thermal stabilisation call” value was inactive: 0. With MIB1 (UniProt Q86YT6) the “dose-dependent thermal stabilisation call” value was inactive: 0. In the case of METTL8 (UniProt Q9H825), the “dose-dependent thermal stabilisation call” value is reported as inactive: 0. In the case of MAP4 (UniProt P27816), the “dose-dependent thermal stabilisation call” value is reported as inactive: 0. MCFD2 (UniProt Q8NI22) was tested, and the “dose-dependent thermal stabilisation call” value was inactive: 0. MND1 (UniProt Q9BWT6) was tested, and the “dose-dependent thermal stabilisation call” value was inactive: 0. For MRPL12 (UniProt P52815), the “dose-dependent thermal stabilisation call” value was active: 1. In the case of MRPS31 (UniProt Q92665), the “dose-dependent thermal stabilisation call” value is reported as inactive: 0. MAPK14 (UniProt Q16539) was tested, and the “dose-dependent thermal stabilisation call” value was active: 1. For MRPS28 (UniProt Q9Y2Q9), the “dose-dependent thermal stabilisation call” value was inactive: 0. MRPS21 (UniProt P82921) was tested, and the “dose-dependent thermal stabilisation call” value was inactive: 0. For MPO (UniProt P05164), the “dose-dependent thermal stabilisation call” value was inactive: 0. For MOCS2, the “dose-dependent thermal stabilisation call” value was inactive: 0. In the case of MORC2 (UniProt Q9Y6X9), the “dose-dependent thermal stabilisation call” value is reported as inactive: 0. For MDH1 (UniProt P40925), the “dose-dependent thermal stabilisation call” value was active: 1. In the case of MRPS26 (UniProt Q9BYN8), the “dose-dependent thermal stabilisation call” value is reported as inactive: 0. For MBTD1 (UniProt Q05BQ5), the “dose-dependent thermal stabilisation call” value was inactive: 0. In the case of MKI67IP (UniProt Q9BYG3), the “dose-dependent thermal stabilisation call” value is reported as inactive: 0. In the case of MCM9 (UniProt Q9NXL9), the “dose-dependent thermal stabilisation call” value is reported as inactive: 0.
